From article PMC10140023
Results are given in words; binding and its absence hold for the method and conditions named. In cells and extracts the contact can be indirect. Some binding calls cover weakened binding; strength is not graded here.

Amino acid sequences for entries named in this document (tags omitted).
UniProt P01106: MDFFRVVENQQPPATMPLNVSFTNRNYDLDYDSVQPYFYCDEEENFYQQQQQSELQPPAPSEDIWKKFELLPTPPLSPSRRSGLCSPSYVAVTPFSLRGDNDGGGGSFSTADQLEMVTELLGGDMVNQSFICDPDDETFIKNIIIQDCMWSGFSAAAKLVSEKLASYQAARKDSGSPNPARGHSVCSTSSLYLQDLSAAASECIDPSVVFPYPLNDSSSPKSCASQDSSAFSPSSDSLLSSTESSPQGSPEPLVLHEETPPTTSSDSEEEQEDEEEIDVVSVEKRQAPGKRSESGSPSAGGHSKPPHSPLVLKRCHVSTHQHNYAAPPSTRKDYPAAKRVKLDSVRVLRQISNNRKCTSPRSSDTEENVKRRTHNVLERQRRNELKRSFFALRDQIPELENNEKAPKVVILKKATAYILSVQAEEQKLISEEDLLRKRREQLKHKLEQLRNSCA
UniProt Q969H0: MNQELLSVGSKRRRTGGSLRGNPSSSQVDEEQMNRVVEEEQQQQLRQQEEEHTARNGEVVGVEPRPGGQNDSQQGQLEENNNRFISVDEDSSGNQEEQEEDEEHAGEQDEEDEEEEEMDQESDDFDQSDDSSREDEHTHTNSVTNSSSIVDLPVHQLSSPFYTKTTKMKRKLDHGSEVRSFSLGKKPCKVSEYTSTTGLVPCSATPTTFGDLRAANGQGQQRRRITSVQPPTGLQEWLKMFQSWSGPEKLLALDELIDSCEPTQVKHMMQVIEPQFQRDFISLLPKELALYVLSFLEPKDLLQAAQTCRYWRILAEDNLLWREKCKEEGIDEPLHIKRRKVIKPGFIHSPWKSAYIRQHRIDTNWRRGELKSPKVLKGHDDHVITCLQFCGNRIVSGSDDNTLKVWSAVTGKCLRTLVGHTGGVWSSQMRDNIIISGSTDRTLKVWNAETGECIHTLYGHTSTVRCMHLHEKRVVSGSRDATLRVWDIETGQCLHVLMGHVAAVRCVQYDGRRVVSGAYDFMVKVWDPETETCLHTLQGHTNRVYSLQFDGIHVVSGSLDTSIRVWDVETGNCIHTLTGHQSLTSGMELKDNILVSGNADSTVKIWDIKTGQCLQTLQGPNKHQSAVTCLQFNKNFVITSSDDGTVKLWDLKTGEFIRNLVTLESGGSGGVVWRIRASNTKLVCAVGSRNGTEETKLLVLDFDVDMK
UniProt P28340: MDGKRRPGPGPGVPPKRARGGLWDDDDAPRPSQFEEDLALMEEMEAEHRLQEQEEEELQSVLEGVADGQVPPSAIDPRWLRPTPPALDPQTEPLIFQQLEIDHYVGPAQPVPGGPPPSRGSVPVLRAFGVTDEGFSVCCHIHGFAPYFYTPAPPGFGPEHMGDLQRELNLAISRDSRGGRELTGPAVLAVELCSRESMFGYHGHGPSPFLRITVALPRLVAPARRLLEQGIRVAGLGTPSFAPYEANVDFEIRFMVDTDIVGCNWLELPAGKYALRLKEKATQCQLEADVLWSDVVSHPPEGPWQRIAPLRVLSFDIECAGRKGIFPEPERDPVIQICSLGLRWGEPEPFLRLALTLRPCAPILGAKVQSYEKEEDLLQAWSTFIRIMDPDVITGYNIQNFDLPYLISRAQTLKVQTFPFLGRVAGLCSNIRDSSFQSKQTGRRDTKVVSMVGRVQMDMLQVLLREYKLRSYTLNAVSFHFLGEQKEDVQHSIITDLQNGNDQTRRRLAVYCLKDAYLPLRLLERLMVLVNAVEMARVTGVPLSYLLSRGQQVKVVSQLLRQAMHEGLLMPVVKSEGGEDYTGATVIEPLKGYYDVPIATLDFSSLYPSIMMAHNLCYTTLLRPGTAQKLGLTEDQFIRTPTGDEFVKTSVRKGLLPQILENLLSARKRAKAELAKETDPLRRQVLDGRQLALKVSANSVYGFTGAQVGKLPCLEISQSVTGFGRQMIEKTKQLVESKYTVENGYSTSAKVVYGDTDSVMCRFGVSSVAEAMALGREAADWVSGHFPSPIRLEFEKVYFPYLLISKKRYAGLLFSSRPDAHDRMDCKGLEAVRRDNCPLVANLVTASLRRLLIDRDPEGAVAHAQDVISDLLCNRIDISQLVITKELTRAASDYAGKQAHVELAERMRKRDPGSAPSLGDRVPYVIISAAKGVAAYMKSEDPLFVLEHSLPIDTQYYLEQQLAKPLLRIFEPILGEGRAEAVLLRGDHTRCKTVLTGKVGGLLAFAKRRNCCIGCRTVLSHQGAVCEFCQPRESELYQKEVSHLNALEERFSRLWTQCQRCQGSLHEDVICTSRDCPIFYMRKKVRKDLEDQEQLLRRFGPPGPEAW

Experiments:
[1] = target: MYC (endogenous) (human (endogenous in T24, 5637, UM-UC-3)) (UniProt P01106); experiment: proximity ligation; Duolink in situ PLA on fixed 5637 cells, endogenous proteins, confocal microscopy; with or without POLD1 depletion
[2] = target: MYC (endogenous) (human (endogenous in T24, 5637, UM-UC-3)) (UniProt P01106); experiment: co-IP; endogenous proteins in T24, 5637 or UM-UC-3 cells (1 x 10^7 cells); IP binding buffer (PBS, 0.3% Tween 20, 75 mM NaCl); some samples with MG132 (10 μM, 6 h), POLD1 and/or FBXW7α knock-down; Western blot
[3] = target: FBXW7α (endogenous) (human (endogenous in T24, 5637, UM-UC-3)) (UniProt Q969H0); experiment: as above

binding [1]	binding [2]	binding [3]	Substance
binds	binds		FBXW7α (endogenous) (from UniProt Q969H0 1-707)
binds	binds	binds	POLD1 (endogenous) (from UniProt P28340 1-1107)
